# Library screening results

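Whole-cell assay for inhibitors of Mycobacterium tuberculosis growth, labelled Cornell in the record; the read-out is not stated. The concentration is filed as 10 mM, unlikely as a test dose, so the dose is not known. The record gives no direction; compounds strong in two other growth screens of this library score well above the rest, so higher reads as stronger inhibition. Size under these conditions: about 53,000 compounds, about 900 of them at 50% or above in at least one test.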

Values are the deposited “Percent Effect”, in %.
How 0% and 100% were set is not recorded. Most values in the screen are low, and negative values occur.
This is an unselected part of the compounds tested.

structure,Percent Effect
Cc1ccc(C(=O)N2CCc3c(COCC4CC4)cncc3C2)o1,-27.19%
COc1ccsc1C(=O)Nc1cc(CN2CCOCC2)ccc1C,13.85%
Cc1cc(C(=O)NCCN2CCCc3ccccc32)[nH]n1,-6.129%
O=C(c1ccnc(-n2cnnc2)c1)N1CCCC2(CCOC2)C1 (stereo not shown),7.288%
Cc1nc2c(c(NCC(O)c3ccccc3Cl)n1)CCNCC2 (stereo not shown),-7.765%
Cc1nc(N2CCN(C(=O)c3ccc(O)cc3)CC2)c2cnn(C)c2n1,8.098%
Cc1cc(=O)n2nc(CNc3cc(Cl)ccc3C)nc2[nH]1,-2.723%
CC(C)[C@H]1COC(=O)N1Cc1nccn1C1CC1,11.7%
CC(=O)N1CCC2(CC1)c1ncc(-c3ccc(F)cc3)n1CCN2C,-5.76%
O=C(O)C(F)(F)F.O=C(O)C(F)(F)F.[H][C@@]12CCC(=O)N(CCN(C)C)[C@]1([H])CCN2Cc1cccc(C#N)c1,24.24%
O=C(CCc1nc(-c2ccsc2)no1)NCC1CCN(C2CC2)C1 (stereo not shown),-23.13%
CC(C)N(Cc1ccccc1)C(=O)c1cc(C2CCCN2C)ccn1 (stereo not shown),6.116%
CC(COc1ccccc1)NCc1nc(-c2cccnc2)no1 (stereo not shown),21.55%
Cc1nsc(C(=O)NCCc2cccs2)n1,1.791%
O=c1[nH]c2cc3c(cc2cc1CN1CCCC1c1ccccn1)OCO3 (stereo not shown),17.68%
Cc1nc(C)n(CC2CCCCN2Cc2ncc(C(C)(C)C)o2)n1 (stereo not shown),7.396%
CCS(=O)(=O)N1Cc2c(Cn3cccc3)nn(C(C)C)c2C1,17.38%
CC(C)CSCCN1CCN(S(C)(=O)=O)CC1,20.68%
CC(=O)Nc1ccc(CNCC(O)c2ccccc2)cc1 (stereo not shown),-11.19%
O=C1OCCN1CCc1nc(-c2cc3c4c(c2)CC(=O)N4CCC3)cs1,-9.142%
O=c1[nH]c2c(c(=O)n1C1CCCCC1)CCC2Nc1ccccn1 (stereo not shown),16.46%
COc1cccc(C(=O)N2CCN(CC(O)c3ccccc3)CC2)c1 (stereo not shown),-1.043%
O=C(Cn1cccn1)N1CCC(c2nnc(C(F)(F)F)o2)CC1,-15.9%
Cc1nn(CC(C)C)c(N(C)C)c1CNCc1cccc2c1OCO2,21.06%
Cc1ccccc1S(=O)(=O)NC(=O)CSc1ccc2c(c1)OCCO2,8.558%
O=C(CN1CCCC(c2ccn[nH]2)C1)Nc1nncs1 (stereo not shown),13.43%
CC(=O)N(C)c1nc(CN2CCCC2Cn2nc(C)cc2C)cs1 (stereo not shown),-18.26%
CCc1nn(C)c(CC)c1CNC(=O)Nc1cccc2c1CCN2C,-25.3%
Cc1ccc(-c2nnc(CN3CC(n4cc(C)cn4)C3)o2)cc1,82.45%
CN(C)C(=O)NCc1cc2n(n1)CCCN(CC1CCCNC1)C2 (stereo not shown),2.849%
O=C(CCNS(=O)(=O)c1ccccc1)N1CCOC(c2ccccc2)C1 (stereo not shown),3.928%
COc1cccc(OCc2cc(C(=O)N3CC(O)C3)n[nH]2)c1,3.061%
CN1CCN(c2ncc(-c3cnccn3)c([C@H]3CCCO3)n2)CC1,-13.8%
Cc1nccn1C1CCCN(C(=O)c2ccc3nnc(C)n3c2)C1 (stereo not shown),-20.88%
COCc1noc(Cc2cc(Cl)c3c(c2)OCCCO3)n1,21%
CN1CCCN(C(=O)c2cc(-c3cc[nH]n3)n3ccccc23)CC1.O=C(O)C(F)(F)F.O=C(O)C(F)(F)F,-35.25%
COc1cc(NCC(O)CN2CCCCCC2)ncn1 (stereo not shown),38.35%
CCCc1n[nH]c(C2CN(C(=O)CCn3cc(C)cn3)CCO2)n1 (stereo not shown),-17.51%
COc1ccc(CNC(C)c2ccccc2Cl)c(OC)c1OC.Cl (stereo not shown),-27.43%
CC(C#N)(NC(=O)c1ccc(C#N)cc1)C1CC1 (stereo not shown),-2.796%
CCC1CN(C(=O)CN2CCN(c3nccc(OC)n3)CC2)CCO1 (stereo not shown),12.87%
Cl.Cl.Cn1cnc2c(N3CCCC3)nc(C3CCNCC3)cc21,-12.2%
O=C(c1ccccn1)N1CCC(Oc2ncccc2Cl)CC1,37.07%
[H][C@]12CC[C@]([H])(CN(C(=O)CCc3n[nH]c(C)c3C)C1)N(CCOC)C2,24.12%
COc1cc(C)nc(N2CCN(C(=O)CCn3cc(C)cn3)CC2)n1,-1.156%
CCn1/c(=N/C(=O)CSCC(=O)Nc2nccs2)sc2ccccc21,-11.08%
C=C(C)CN1CCN(CCC(=O)Nc2ccccc2C(N)=O)CC1,30.17%
Cc1ccc(C(=O)N2CCSCC2)cc1NC(=O)NCCO,4.458%
COCCC(=O)NCc1ccc(-c2ccccc2C(=O)O)nc1,47.85%
Nc1cc(-c2ccc(C(=O)O)cc2O)c2cc[nH]c2n1,-29.05%
COCCn1ccnc1C1CCCN(c2cnccn2)C1 (stereo not shown),-8.381%
CN(CC(O)C(F)(F)F)C(=O)Nc1cccc(Cn2cccn2)c1 (stereo not shown),-2.271%
Cc1cncc(C2CCCN(C(=O)c3scnc3C)C2)n1 (stereo not shown),9.05%
[H][C@@]12CCN(c3nc(-c4ccncc4)nc4c3cnn4C)C[C@@]([H])(CC1)N2C,18.61%
Cc1nc(C)c(CNCc2nnc3n2CCCC3C(F)(F)F)s1 (stereo not shown),3.14%
O=C(O)C(F)(F)F.O=C(O)C(F)(F)F.[H][C@@]12CN(CC3CC3)CCC[C@]1(C(=O)N(C)C)CN(c1ccccn1)C2,43.84%
Cc1cnc(C)c(N2CC[C@H](N3CCOCC3)[C@H](CCCO)C2)n1,10.56%
NCC1CCCN(c2nc(-c3ccccc3)nc3c2CCNCC3)C1 (stereo not shown),10.7%
[H][C@@]12COC[C@]1([H])[C@@H](OCc1cccnc1)CN2C(=O)CNC(C)=O,6.954%
Cc1cc(C)n(C2CCCN(C(=O)c3ccnc(N(C)C)c3)C2)n1 (stereo not shown),-5.779%
O=C(NC1CC1)N1CCc2ncc(CN3CCOCC3)n2CC1.O=C(O)C(F)(F)F,9.351%
NC(=O)[C@H]1CCCN1C(=O)c1csc(-c2ccc(C(F)(F)F)cc2)n1,24.3%
O=C(CS(=O)(=O)c1ncccc1Cl)NC1CCCc2ccccc21 (stereo not shown),17.85%
Cc1nn(C(C)C)cc1S(=O)(=O)N(C)Cc1nonc1C,12.39%
CCS(=O)(=O)N1CCc2cc(C(=O)NC)c(NCC(C)C)nc2CC1,-0.7327%
Cc1occc1C(=O)N1CCc2ncnc(-c3cnn(C)c3)c2CC1,-1.677%
N#CCCN(Cc1ccccn1)C(=O)Nc1cccnc1,13.49%
COC(=O)N1CCC(NC(=O)N2CCCC2c2ccsc2)CC1 (stereo not shown),9.97%
Cc1cc(CN2CCN(C(C)C(=O)NCc3cccs3)CC2)no1 (stereo not shown),12.22%
O=C(CCN1CCCO1)NC1CCCN(CC2CCCCC2)C1 (stereo not shown),-8.422%
CC(=O)N1CCN(Cc2c(C)sc3ccccc23)CC(O)C1 (stereo not shown),-27.25%
NC(=O)C1CCN(C(C(=O)O)c2ccc(Cl)c(C(F)(F)F)c2)CC1 (stereo not shown),-36.66%
CC(O)CN1CCN(C(=O)CCOc2ccccc2F)CC1 (stereo not shown),3.644%
[H][C@]12CN(c3ncccn3)C[C@@]1([H])S(=O)(=O)CC[C@@H]2C(=O)NCC(C)C,-9.049%
Cc1cccnc1Nc1nccc(C2CN(CC(N)=O)C2)n1,-41.66%
CN1CCCN(CC(=O)N2CCc3[nH]c(-c4ccccc4)nc3C2)CC1,4.192%
CC(C)CCN1C2(CCN(Cc3nccs3)C2)c2ccccc2S1(=O)=O.O=C(O)C(F)(F)F (stereo not shown),30.36%
Cc1nc(NC(=O)CN2CCOC(Cn3cccn3)C2)sc1C (stereo not shown),-4.405%
CN(CCc1cn[nH]c1)C(=O)C1CC(=O)N(Cc2ccccn2)C1 (stereo not shown),10.05%
CCOCCSc1nnc(Cc2ccccc2F)o1,24.31%
Cc1nnc(CN(C)C2CCN(Cc3nnc(C4CCC4)o3)C2)n1C (stereo not shown),-15.52%
O=C(O)C(F)(F)F.O=C(O)C(F)(F)F.[H][C@@]12C[C@H](C(=O)NC3CC3)CN(Cc3ccc4ccccc4n3)[C@]1([H])CCO2,-3.839%
COCCn1ccc(=O)c(OCC(=O)Nc2ccc(OC)c(Cl)c2)c1C,34.54%
Fc1cccc(CN2CCC3(CCCN3c3ncccn3)CC2)c1.O=C(O)C(F)(F)F,-4.125%
CCn1ncc(S(=O)(=O)NC2(CN3CCOCC3)CCCCC2)c1C,9.089%
CC(Cn1cccn1)NC(=O)N(C)Cc1ccc(C(N)=O)cc1 (stereo not shown),-1.902%
Cc1ccc(-c2nc(CN3CCOC(CN(C)C)C3)co2)cc1 (stereo not shown),32.77%
Cc1cc(S(=O)(=O)NC(C)(C)CN)c(F)cc1F.Cl,-43.63%
Cc1nn(C)c(C)c1C1CCCN1Cc1noc(C2CC2)n1 (stereo not shown),12.69%
O=C(COc1coc(CN2CCCCC2)cc1=O)c1ccc(Cl)cc1,53.44%
CCN1C(=O)CCCC12CCCN(C(=O)c1conc1C)C2 (stereo not shown),-17.08%
Cn1cnc2c1C(C(=O)N1CCCC1)N(S(C)(=O)=O)CC2 (stereo not shown),-40.25%
Cc1nc(C)n(CC2CCCCN2Cc2cscn2)n1 (stereo not shown),-37.98%
CCOC1CCN(CC(=O)Nc2oc(C)c3c(C)n[nH]c(=O)c23)CC1,0.09699%
[H][C@]12CCCC(=O)N[C@@]1(C)CCCCN2C(=O)c1cccc(C)n1,-56.19%
Nc1cc(-c2cc(C(=O)O)ccc2Cl)c2cc[nH]c2n1,8.362%
N#Cc1cc(Cl)ccc1N1CCOC(C(N)=O)C1 (stereo not shown),-27.3%
CS(=O)(=O)N1CCC(c2nccn2Cc2ccccn2)CC1,25.37%
CC(C)c1noc(C2CCN(C(=O)C3CCCO3)CC2)n1 (stereo not shown),4.846%
Cc1cc(C)n(CC2CCCN2CCc2ccncc2)n1 (stereo not shown),-0.7696%
Cc1nc(CN2CCC(CNC(=O)Nc3ccccn3)CC2)oc1C,16.46%
CCC1(CC)C(=O)NC(=O)N/C1=N/c1cccc(OC)c1,-59.47%
Cc1noc(CCNS(=O)(=O)N2CCCC2c2ccc(C)o2)n1 (stereo not shown),-21.33%
O=C(O)c1cc(C2CC2)nc2c(Cl)cnn12,-53.3%
CC(C(=O)Nc1ncccn1)N1CCCN(c2nccs2)CC1 (stereo not shown),7.315%
Cc1cc(CN(C)CC2CCCCC2)no1,14.65%
CCCS(=O)(=O)N1CCN(c2ccnc(N3CCCCC3)n2)CC1,50.94%
Cn1nc(C(=O)N2CCOCC2)c2c1CN(CC1CC1)C2.O=C(O)C(F)(F)F.O=C(O)C(F)(F)F,-1.09%
Cc1nc(C)c(C(=O)N2C[C@@H](C(=O)O)[C@H](C3CC3)C2)s1,5.947%
CN(Cc1nccs1)c1nc(-c2ccccn2)nc2c1CCNCC2,28.38%
CC(c1ccccc1)n1c(SCC(=O)O)nnc1-c1ccccc1Cl (stereo not shown),-23.16%
CCN1CCN(C[C@H]2CC[C@@H](Cc3ccc4c(c3)OCO4)O2)CC1,8.168%

For reference, 12 entries once more:

{"structure": "O=C(COc1coc(CN2CCCCC2)cc1=O)c1ccc(Cl)cc1", "Percent Effect": 53.44}
{"structure": "CCOC1CCN(CC(=O)Nc2oc(C)c3c(C)n[nH]c(=O)c23)CC1", "Percent Effect": 0.09699}
{"structure": "Cc1ccc(-c2nnc(CN3CC(n4cc(C)cn4)C3)o2)cc1", "Percent Effect": 82.45}
{"structure": "CCS(=O)(=O)N1CCc2cc(C(=O)NC)c(NCC(C)C)nc2CC1", "Percent Effect": -0.7327}
{"structure": "Cc1cc(C(=O)NCCN2CCCc3ccccc32)[nH]n1", "Percent Effect": -6.129}
{"structure": "Cc1nc(C)c(C(=O)N2C[C@@H](C(=O)O)[C@H](C3CC3)C2)s1", "Percent Effect": 5.947}
{"structure": "COc1cc(NCC(O)CN2CCCCCC2)ncn1", "stereo": "stereo not shown", "Percent Effect": 38.35}
{"structure": "CN(CCc1cn[nH]c1)C(=O)C1CC(=O)N(Cc2ccccn2)C1", "stereo": "stereo not shown", "Percent Effect": 10.05}
{"structure": "O=c1[nH]c2cc3c(cc2cc1CN1CCCC1c1ccccn1)OCO3", "stereo": "stereo not shown", "Percent Effect": 17.68}
{"structure": "COc1cc(C)nc(N2CCN(C(=O)CCn3cc(C)cn3)CC2)n1", "Percent Effect": -1.156}
{"structure": "O=C(NC1CC1)N1CCc2ncc(CN3CCOCC3)n2CC1.O=C(O)C(F)(F)F", "Percent Effect": 9.351}
{"structure": "Nc1cc(-c2ccc(C(=O)O)cc2O)c2cc[nH]c2n1", "Percent Effect": -29.05}

The values are deposited in ChEMBL (CHEMBL3988442, “University of Dundee, Small-Polar-MMV Screening Library” (2021)).